Test results taken from publication doi:10.1101/2024.09.02.610768 (bioRxiv, 2024).
No constants are given. Whether binding was seen depends on the method and setting. Some entries that bind do so weakly or less than the wild type.

Target: FrzCD^ΔH2 (Myxococcus xanthus) (UniProt P43500)
Assay: SEC-MALS

B1: FrzCD^ΔH2 (receptor, Myxococcus xanthus, UniProt P43500 1-417, looked up)
chain: MSLDTPNEKPAGKARARKAPASKAGATNAASTSSSTKAITDTLLTVLSGNLQARVPKELVGESGVELAHLLNQVLDQFAASEHVREINEAALRLSSSANQVLAASTQHETSSTEQAAAIHETTATMEELKHASAQIAENAGSVARVAEETLGAARAGRGAIGEFIQAMQQIRSDGVAVADSIAKLSKRVERIGTVVEVIDEIADRSDLLALNAALEGSRAGEAGKGFSIVAAEMRRLAENVLDSTKEIKNLITEIREATAAAAGAAEASKSATESGEKLGAVAAQAVEGILAGVQETSDAARVINLATQQQRTATEQVVASMAEIEDVTRQTTQASKQATGAAAELTQLAGRLAELIKRFKAD
binding: binds
